{"source": "patent US7223787B2", "about": "“Prenylation inhibitors reduce host cell permissiveness to viral replication” (priority 2003, dated 2007)", "test_system": "HCV RNA replication", "assay": "HCV RNA replicon levels in Huh7-K2040 cells (subgenomic replicon)", "conditions": "lovastatin-treated Huh7-K2040 cells supplemented with the metabolite, 24-hour culture", "note": "At least one structure is not confirmed: it was looked up by name or label, or the drawing left a doubt.", "data": [{"compound": "CCCCCCCC/C=C\\CCCCCCCC(=O)O", "note": "[oleate]", "values": [{"measurement": "rescue of HCV RNA levels from the suppressive action of lovastatin", "result": "neither farnesol nor oleate, mediated a dose-dependent rescue"}]}]}
